In publication PMC6713762 one finds binding data, which are given here for three substances.

Chains of the proteins cited; added tags and fusions are not shown. Lines headed by an entry give the natural chain unless they say otherwise; changes in a name come on top. Residues count along the entry.
UniProt Q15796: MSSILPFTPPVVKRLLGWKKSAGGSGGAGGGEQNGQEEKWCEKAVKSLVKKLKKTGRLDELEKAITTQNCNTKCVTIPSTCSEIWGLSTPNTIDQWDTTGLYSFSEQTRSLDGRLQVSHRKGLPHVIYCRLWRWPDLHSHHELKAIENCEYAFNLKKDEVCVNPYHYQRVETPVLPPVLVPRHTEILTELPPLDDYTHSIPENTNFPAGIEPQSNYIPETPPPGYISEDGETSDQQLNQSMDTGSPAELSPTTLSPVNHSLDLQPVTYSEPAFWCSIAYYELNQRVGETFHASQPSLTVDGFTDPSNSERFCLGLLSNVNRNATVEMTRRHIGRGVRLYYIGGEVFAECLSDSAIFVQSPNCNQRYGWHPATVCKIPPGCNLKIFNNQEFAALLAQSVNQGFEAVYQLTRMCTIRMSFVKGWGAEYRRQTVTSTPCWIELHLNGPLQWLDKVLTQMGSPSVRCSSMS
GFP-Smad2/C (266–467): residues 266-467 of Q15796
GST-Smad2/MH2: residues 274-467 of Q15796
UniProt P84022: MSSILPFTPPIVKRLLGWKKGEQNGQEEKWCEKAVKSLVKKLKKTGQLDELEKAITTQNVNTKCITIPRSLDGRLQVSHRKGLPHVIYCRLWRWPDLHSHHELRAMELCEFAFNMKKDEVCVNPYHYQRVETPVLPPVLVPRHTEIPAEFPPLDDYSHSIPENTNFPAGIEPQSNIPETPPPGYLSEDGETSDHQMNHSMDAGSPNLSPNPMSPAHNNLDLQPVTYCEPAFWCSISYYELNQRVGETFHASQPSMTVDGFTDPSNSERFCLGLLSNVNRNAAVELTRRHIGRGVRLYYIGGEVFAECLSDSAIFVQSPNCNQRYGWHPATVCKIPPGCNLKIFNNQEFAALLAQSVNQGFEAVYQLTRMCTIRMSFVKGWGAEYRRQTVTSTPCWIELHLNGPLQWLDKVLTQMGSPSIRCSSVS
UniProt Q09472: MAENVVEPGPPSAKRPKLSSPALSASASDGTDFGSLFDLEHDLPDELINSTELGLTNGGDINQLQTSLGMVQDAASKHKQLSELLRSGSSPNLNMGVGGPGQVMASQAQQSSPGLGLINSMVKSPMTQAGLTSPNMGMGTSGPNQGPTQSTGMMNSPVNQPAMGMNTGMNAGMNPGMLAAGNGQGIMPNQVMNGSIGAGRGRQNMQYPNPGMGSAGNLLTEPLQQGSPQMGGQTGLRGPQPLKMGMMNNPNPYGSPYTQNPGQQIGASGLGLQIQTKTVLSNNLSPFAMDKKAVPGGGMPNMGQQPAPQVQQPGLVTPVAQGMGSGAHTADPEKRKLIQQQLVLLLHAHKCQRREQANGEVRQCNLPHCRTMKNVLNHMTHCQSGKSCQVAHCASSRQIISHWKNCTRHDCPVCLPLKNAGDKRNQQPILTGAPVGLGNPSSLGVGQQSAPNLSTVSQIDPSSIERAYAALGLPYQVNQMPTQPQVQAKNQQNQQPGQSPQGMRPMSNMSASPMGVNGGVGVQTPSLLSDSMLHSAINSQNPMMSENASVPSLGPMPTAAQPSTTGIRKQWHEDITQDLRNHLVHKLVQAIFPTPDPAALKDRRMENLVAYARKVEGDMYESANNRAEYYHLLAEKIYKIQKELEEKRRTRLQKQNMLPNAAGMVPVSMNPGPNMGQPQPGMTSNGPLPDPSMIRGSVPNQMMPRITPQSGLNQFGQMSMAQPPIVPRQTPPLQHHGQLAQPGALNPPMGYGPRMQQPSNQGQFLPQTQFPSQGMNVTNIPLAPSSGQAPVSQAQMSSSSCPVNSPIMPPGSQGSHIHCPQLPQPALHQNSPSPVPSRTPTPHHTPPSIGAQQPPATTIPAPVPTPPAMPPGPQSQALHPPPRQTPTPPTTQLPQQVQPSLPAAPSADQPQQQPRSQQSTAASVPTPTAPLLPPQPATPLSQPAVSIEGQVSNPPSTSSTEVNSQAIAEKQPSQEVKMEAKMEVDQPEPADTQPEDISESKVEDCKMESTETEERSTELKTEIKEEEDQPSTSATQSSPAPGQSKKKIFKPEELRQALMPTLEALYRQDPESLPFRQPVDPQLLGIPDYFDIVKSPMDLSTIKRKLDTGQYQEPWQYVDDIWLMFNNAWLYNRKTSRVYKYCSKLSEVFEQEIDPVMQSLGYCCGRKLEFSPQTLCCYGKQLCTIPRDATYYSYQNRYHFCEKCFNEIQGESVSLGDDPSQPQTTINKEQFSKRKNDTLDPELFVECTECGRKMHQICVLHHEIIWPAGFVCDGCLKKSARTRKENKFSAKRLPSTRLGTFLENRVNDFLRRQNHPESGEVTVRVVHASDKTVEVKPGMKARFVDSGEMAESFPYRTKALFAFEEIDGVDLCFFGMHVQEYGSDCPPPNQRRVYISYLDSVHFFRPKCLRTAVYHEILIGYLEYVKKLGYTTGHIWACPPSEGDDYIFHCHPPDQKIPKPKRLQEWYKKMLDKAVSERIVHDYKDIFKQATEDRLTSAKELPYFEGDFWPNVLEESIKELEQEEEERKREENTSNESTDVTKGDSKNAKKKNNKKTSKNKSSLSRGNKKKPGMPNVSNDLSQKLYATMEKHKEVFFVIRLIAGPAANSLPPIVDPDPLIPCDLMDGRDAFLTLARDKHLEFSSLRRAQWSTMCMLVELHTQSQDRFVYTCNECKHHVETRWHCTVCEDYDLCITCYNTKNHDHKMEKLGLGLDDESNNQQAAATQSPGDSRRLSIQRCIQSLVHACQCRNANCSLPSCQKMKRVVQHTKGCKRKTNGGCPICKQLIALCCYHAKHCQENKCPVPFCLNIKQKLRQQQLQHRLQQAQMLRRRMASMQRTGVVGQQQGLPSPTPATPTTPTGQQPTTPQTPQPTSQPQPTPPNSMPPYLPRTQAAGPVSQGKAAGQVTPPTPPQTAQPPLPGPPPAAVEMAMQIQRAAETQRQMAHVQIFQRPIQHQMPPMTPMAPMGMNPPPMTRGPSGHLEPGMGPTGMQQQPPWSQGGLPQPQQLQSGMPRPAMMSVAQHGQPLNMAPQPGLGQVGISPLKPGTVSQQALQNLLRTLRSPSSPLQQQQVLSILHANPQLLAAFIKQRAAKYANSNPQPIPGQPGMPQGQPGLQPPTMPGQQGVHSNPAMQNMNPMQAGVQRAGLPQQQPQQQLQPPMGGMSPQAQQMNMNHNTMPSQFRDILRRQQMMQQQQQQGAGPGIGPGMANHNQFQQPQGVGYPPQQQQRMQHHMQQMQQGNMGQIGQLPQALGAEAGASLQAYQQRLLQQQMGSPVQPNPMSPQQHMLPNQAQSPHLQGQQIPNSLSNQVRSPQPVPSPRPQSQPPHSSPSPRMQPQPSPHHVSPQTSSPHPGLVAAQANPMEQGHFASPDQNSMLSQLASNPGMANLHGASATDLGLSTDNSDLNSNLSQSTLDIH
UniProt Q13485: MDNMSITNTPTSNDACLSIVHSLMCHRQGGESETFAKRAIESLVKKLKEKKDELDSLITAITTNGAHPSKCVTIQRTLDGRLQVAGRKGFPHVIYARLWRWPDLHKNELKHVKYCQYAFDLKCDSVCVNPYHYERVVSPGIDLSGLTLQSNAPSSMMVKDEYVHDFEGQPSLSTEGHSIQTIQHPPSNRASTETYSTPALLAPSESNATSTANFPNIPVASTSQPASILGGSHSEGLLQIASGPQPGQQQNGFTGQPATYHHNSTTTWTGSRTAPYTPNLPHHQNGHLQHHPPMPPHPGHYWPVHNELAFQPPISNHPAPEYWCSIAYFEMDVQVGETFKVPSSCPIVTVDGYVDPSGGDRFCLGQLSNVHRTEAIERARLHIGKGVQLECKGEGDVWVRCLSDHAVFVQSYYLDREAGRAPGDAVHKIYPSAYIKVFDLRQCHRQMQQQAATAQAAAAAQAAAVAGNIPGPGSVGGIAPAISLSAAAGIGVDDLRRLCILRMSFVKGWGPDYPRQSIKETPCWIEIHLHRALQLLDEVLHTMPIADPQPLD

In assay [1] the target is GFP-Smad2/C (266–467) (UniProt Q15796). As to the kind of experiment: co-IP; lysates of X293T cells expressing the tagged proteins, immunoprecipitated with anti-GFP antibody; lysis buffer 10 mM Tris-HCl pH 7.4, 140 mM NaCl, 5 mM EDTA, 1% NP40.
Assay [2] deals with Smad2 (endogenous, HepG2) (human (endogenous in HepG2)) (UniProt Q15796). As to the kind of experiment: co-IP; endogenous proteins; HepG2 lysates (control or GREB1 siRNA) immunoprecipitated with anti-Smad2/3 antibody; lysis buffer 10 mM Tris-HCl pH 7.4, 140 mM NaCl, 5 mM EDTA, 1% NP40.
The target of assay [3] is Smad3 (endogenous, HepG2) (human (endogenous in HepG2)) (UniProt P84022). Described as above.
The target in assay [4] is GST-Smad2/MH2 (UniProt Q15796). The experiment in a line: pull-down; total cell lysates of HepG2 or Huh6 expressing GFP-GREB1 incubated 1 h with 20 μg GST fusion bound to glutathione-Sepharose beads; washed three times with lysis buffer; only the target purified.

No constants are given. Whether binding was seen depends on the method and setting. Binding seen in cells or lysates may run through a third protein. Some results given as binding are weak or reduced against the parent protein; the word gives no strength.

On to “p300 (co-precipitated with GFP-Smad2/C) (from UniProt Q09472 1-2414)”, for which the binding result in assay [1] is given as “binds”.
Turning to “p300 (endogenous, HepG2) (from UniProt Q09472 1-2414)”, the binding result in assay [2] and in assay [3] was “binds” each time.
“Smad4 (endogenous, HepG2) (from UniProt Q13485 1-552)”: the binding result in assay [4] was “binds”.
